Measurements reported in PubChem BioAssay AID504774 (Drosophila RNAi Screening Center, 2011)
Purpose: 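Knock-downs that shift viability of MMS-exposed cells relative to untreated ones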 (primary screen). Cell system: Drosophila Kc167 cells. Reagents: long dsRNA against Drosophila genes, about 0.25 µg dsRNA per well. Timing: about 6 days: 3 days knock-down, then 3 days with or without MMS. Conditions: methyl methanesulphonate 0.004% (w/v) for 3 days after knock-down. Read-out: 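ATP-dependent luminescence as a measure of live cells in MMS-exposed wells, quantile normalised within each plate, with replicate values also given as a mean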. Scale: mean viability with MMS: higher = more surviving cells after MMS.
The screen tested about 23,000 reagents; this is a random part of those with a known target gene and a result. 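Values are quantile-normalised luminescence on an arbitrary scale; higher means more cells surviving MMS.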 The numbers tell different reagents against one gene apart. A plus sign joins genes that one reagent is predicted to hit. Not all columns of the deposit are shown. Reagent sequences are not shown.

| target gene | reagent no. | mean viability with MMS |
| --- | --- | --- |
| CG31406 (GeneID 318715) | 1 | 3.47e6 |
| Rh50 (GeneID 38589) | 1 | 3.55e6 |
| Cpr76Bd (GeneID 40123) | 1 | 3.49e6 |
| yata (GeneID 43508) | 1 | 3.46e6 |
| rho-7 (GeneID 36281) | 1 | 3.69e6 |
| CG18814 (GeneID 59175) | 1 | 3.57e6 |
| Tsp42Ec (GeneID 35612) | 1 | 3.50e6 |
| mon2 (GeneID 326157) | 1 | 3.76e6 |
| CG15127 (GeneID 50203) | 1 | 3.58e6 |
| CG15127 (GeneID 50203) | 2 | 3.60e6 |
| wupA (GeneID 32794) | 1 | 3.65e6 |
| wupA (GeneID 32794) | 2 | 3.66e6 |
| CG15153 (GeneID 35080) | 1 | 3.40e6 |
| Hsp70Aa + Hsp70Bb + Hsp70Ba + 3 more | 1 | 3.41e6 |
| CG15029 (retired record) (GeneID 32449) | 1 | 3.41e6 |
| CG17349 (GeneID 35209) | 1 | 3.49e6 |
| Prosbeta2R1 (GeneID 31511) | 1 | 3.46e6 |
| PCID2 (GeneID 39306) | 1 | 3.44e6 |
| Yp1 (GeneID 31939) | 1 | 3.33e6 |
| CG6951 (GeneID 40222) | 1 | 3.37e6 |
| TwdlX (GeneID 318094) | 1 | 3.62e6 |
| Gr58a (GeneID 117344) | 1 | 3.53e6 |
| CG1544 (GeneID 43689) | 1 | 3.39e6 |
| RunxB (GeneID 33051) | 1 | 3.49e6 |
| RunxB (GeneID 33051) | 2 | 3.54e6 |
| RunxB (GeneID 33051) | 3 | 2.99e6 |
| RunxB (GeneID 33051) | 4 | 3.50e6 |
| CG8613 (GeneID 36593) | 1 | 3.53e6 |
| Klp61F (GeneID 38135) | 1 | 3.36e6 |
| CG12662 (GeneID 31825) | 1 | 3.31e6 |
| tank (GeneID 33684) | 1 | 3.72e6 |
| Pex13 (GeneID 36462) | 1 | 3.57e6 |
| cGlr2 (GeneID 246606) | 1 | 3.29e6 |
| CG9222 (GeneID 33867) | 1 | 3.68e6 |
| Targ1 (GeneID 40340) | 1 | 3.57e6 |
| CG12659 (GeneID 50403) | 1 | 3.56e6 |
| CG32055 (GeneID 39188) | 1 | 3.78e6 |
| baf (GeneID 34095) | 1 | 3.88e6 |
| udd (GeneID 35781) | 1 | 3.60e6 |
| Bet1 (GeneID 40094) | 1 | 3.42e6 |
| betaTub56D (GeneID 37238) | 1 | 3.31e6 |
| pncr004:X (retired record) (GeneID 3772236) | 1 | 3.69e6 |
| CG10909 (GeneID 41581) | 1 | 3.59e6 |
| Takl2 (GeneID 42692) | 1 | 3.82e6 |
| Nup160 (GeneID 34549) | 1 | 3.08e6 |
| Polr1F (GeneID 33963) | 1 | 3.22e6 |
| CG4709 (GeneID 34324) | 1 | 3.60e6 |
| trc (GeneID 40165) | 1 | 3.28e6 |
| Gr98c (GeneID 117336) | 1 | 3.46e6 |
| CG12817 (GeneID 41250) | 1 | 3.66e6 |
| CG6280 (GeneID 36522) | 1 | 3.60e6 |
| RhoGAP19D (GeneID 33048) | 1 | 3.64e6 |
| RhoGAP19D (GeneID 33048) | 2 | 3.65e6 |
| Erk7 (GeneID 31877) | 1 | 3.64e6 |
| Erk7 (GeneID 31877) | 2 | 3.67e6 |
| Erk7 (GeneID 31877) | 3 | 3.50e6 |
| CG32246 (GeneID 317936) | 1 | 3.27e6 |
| chrb (GeneID 39284) | 1 | 3.56e6 |
| HUWE1 (GeneID 32510) | 1 | 3.64e6 |
| CG5281 (GeneID 41375) | 1 | 3.49e6 |
| lncRNA:CR32660 (GeneID 3771836) | 1 | 3.33e6 |
| smal (GeneID 5740323) | 1 | 3.51e6 |
| smal (GeneID 5740323) | 2 | 3.37e6 |
| smal (GeneID 5740323) | 3 | 3.57e6 |
| smal (GeneID 5740323) | 4 | 3.57e6 |
| smal (GeneID 5740323) | 5 | 3.29e6 |
| Arp53D (GeneID 36879) | 1 | 3.52e6 |
| CG12992 (GeneID 32733) | 1 | 3.49e6 |
